# The supplement of paper PMC10382679
# Single values of this set are uncertain.
# B1: Rpb7; numbered along this chain (parent)
# chain: MFFIKDLSLNITLHPSFFGPRMKQYLKTKLLEEVEGSCTGKFGYILCVLDYDNIDIQRGRILPTDGSAEFNVKYRAVVFKPFKGEVVDGTVVSCSQHGFEVQVGPMKVFVTKHLMPQDLTFNAGSNPPSYQSSEDVITIKSRIRVKIEGCISQVSSIHAIGSIKEDYLGAI
# Tests used:
# [1] = variants of: B1; assay: log2 fold change of mutant abundance, UV-irradiated vs unirradiated; higher = more UV resistant (enriched after UV); conditions: with Saccharomyces cerevisiae rad7Δ rad26Δ; UV dose (J/m2): 10; genetic background: rad7Δ rad26Δ rpb7Δ + plasmid RPB7 library; outgrowth: 10 cell divisions
# [2] = variants of: B1; assay: NOISeq theta enrichment statistic, UV-irradiated vs unirradiated (dimensionless); higher = more UV resistant (enriched after UV); conditions: with Saccharomyces cerevisiae rad7Δ rad26Δ; UV dose (J/m2): 10; genetic background: rad7Δ rad26Δ rpb7Δ + plasmid RPB7 library; outgrowth: 10 cell divisions
Variant,log2 fold change of mutant abundance [1],NOISeq theta enrichment statistic [2]
MFFIKDLSLNITLHPSFFGPRMKQYLKTKLLEEVEGSCTGKFEYILCVLDYDNIDIQRGRILPTDGSAEFNVKYRAVVFKPFKGEVVDGTVVSCSQHGFEVQVGPMKVFVTKHLMPQDLTFNAGSNPPSYQSSEDVITIKSRIRVKIEGCISQVSSIHAIGSIKEDYLGAI,-0.548,-0.704
MFFIKDLSLNITLHPSFFGPRMKQYLKTKLLEEVEGSCTGKFLYILCVLDYDNIDIQRGRILPTDGSAEFNVKYRAVVFKPFKGEVVDGTVVSCSQHGFEVQVGPMKVFVTKHLMPQDLTFNAGSNPPSYQSSEDVITIKSRIRVKIEGCISQVSSIHAIGSIKEDYLGAI,0.124,0.0863
MFFIKDLSLNITLHPSFFGPRMKQYLKTKLLEEVEGSCTGKFRYILCVLDYDNIDIQRGRILPTDGSAEFNVKYRAVVFKPFKGEVVDGTVVSCSQHGFEVQVGPMKVFVTKHLMPQDLTFNAGSNPPSYQSSEDVITIKSRIRVKIEGCISQVSSIHAIGSIKEDYLGAI,-0.117,-0.212
MFFIKDLSLNITLHPSFFGPRMKQYLKTKLLEEVEGSCTGKFSYILCVLDYDNIDIQRGRILPTDGSAEFNVKYRAVVFKPFKGEVVDGTVVSCSQHGFEVQVGPMKVFVTKHLMPQDLTFNAGSNPPSYQSSEDVITIKSRIRVKIEGCISQVSSIHAIGSIKEDYLGAI,-0.337,-0.231
MFFIKDLSLNITLHPSFFGPRMKQYLKTKLLEEVEGSCTGKFVYILCVLDYDNIDIQRGRILPTDGSAEFNVKYRAVVFKPFKGEVVDGTVVSCSQHGFEVQVGPMKVFVTKHLMPQDLTFNAGSNPPSYQSSEDVITIKSRIRVKIEGCISQVSSIHAIGSIKEDYLGAI,-0.0786,-0.154
MFFIKDLSLNITLHPSFFGPRMKQYLKTKLLEEVEGSCTGKFWYILCVLDYDNIDIQRGRILPTDGSAEFNVKYRAVVFKPFKGEVVDGTVVSCSQHGFEVQVGPMKVFVTKHLMPQDLTFNAGSNPPSYQSSEDVITIKSRIRVKIEGCISQVSSIHAIGSIKEDYLGAI,0.00397,0.00255
MFFIKDLSLNITLHPSFFGPRMKQYLKTKLLEEVEGSCTGKFGCILCVLDYDNIDIQRGRILPTDGSAEFNVKYRAVVFKPFKGEVVDGTVVSCSQHGFEVQVGPMKVFVTKHLMPQDLTFNAGSNPPSYQSSEDVITIKSRIRVKIEGCISQVSSIHAIGSIKEDYLGAI,0.214,0.428
MFFIKDLSLNITLHPSFFGPRMKQYLKTKLLEEVEGSCTGKFGDILCVLDYDNIDIQRGRILPTDGSAEFNVKYRAVVFKPFKGEVVDGTVVSCSQHGFEVQVGPMKVFVTKHLMPQDLTFNAGSNPPSYQSSEDVITIKSRIRVKIEGCISQVSSIHAIGSIKEDYLGAI,0.0586,0.0709
MFFIKDLSLNITLHPSFFGPRMKQYLKTKLLEEVEGSCTGKFGFILCVLDYDNIDIQRGRILPTDGSAEFNVKYRAVVFKPFKGEVVDGTVVSCSQHGFEVQVGPMKVFVTKHLMPQDLTFNAGSNPPSYQSSEDVITIKSRIRVKIEGCISQVSSIHAIGSIKEDYLGAI,0.284,0.982
